Values from PubChem BioAssay AID652272 (Drosophila RNAi Screening Center, 2013).
Screen: 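Finding fly genes that regulate Hedgehog signal transduction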 (primary screen). Cell system: Drosophila clone 8 (Cl8) cells. Reagent: long dsRNA against Drosophila genes. Read-out: 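Plate reader light from a firefly reporter under a ptc promoter fragment that responds to Hedgehog, with Renilla light as transfection reference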. Reading the numbers: firefly Hh reporter signal: higher = more ptc reporter light; Renilla reference signal: higher = more Renilla control light. Hit rule: 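Called a hit if the two-replicate mean z-score lies below -2 or above +3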. Calls: active = hit: reporter lowered or raised; inactive = not a hit.
The deposit covers about 21,000 reagents; below is an unselected part of those that have a named target and a result. Of all reagents, 503 (2.4%) are marked active. 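Raw plate light values, not normalised; calls rest on replicate z-scores that were not deposited; hits include reporter decreases as well as increases.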 Names joined by + are all predicted targets of the reagent. The record does not give: the amount of reagent, the time to read-out.

What did the screen give for CG3339 (GeneID 43295) [DRSC13821]?
firefly Hh reporter signal, replicate 1: 52656; firefly Hh reporter signal, replicate 2: 2.34e5; Renilla reference signal, replicate 1: 12443; Renilla reference signal, replicate 2: 5195; outcome: inactive

With CG3339 (GeneID 43295) [DRSC15479], what does the deposit list?
firefly Hh reporter signal, replicate 1: 75917; firefly Hh reporter signal, replicate 2: 1.08e5; Renilla reference signal, replicate 1: 2808; Renilla reference signal, replicate 2: 3970; outcome: inactive

Which result is listed for ssh (GeneID 42986) [DRSC16730]?
firefly Hh reporter signal, replicate 1: 4.11e5; firefly Hh reporter signal, replicate 2: 1.06e5; Renilla reference signal, replicate 1: 22609; Renilla reference signal, replicate 2: 3424; outcome: inactive

With CG12836 (GeneID 35630) [DRSC06182], how do the results read?
firefly Hh reporter signal, replicate 1: 79376; firefly Hh reporter signal, replicate 2: 50633; Renilla reference signal, replicate 1: 1735; Renilla reference signal, replicate 2: 4524; outcome: inactive

For KrT95D (GeneID 42843) [DRSC16725], what does the deposit list?
firefly Hh reporter signal, replicate 1: 1.09e5; firefly Hh reporter signal, replicate 2: 50525; Renilla reference signal, replicate 1: 4384; Renilla reference signal, replicate 2: 2123; outcome: inactive

How did the screen score CG13711 (GeneID 38576) [DRSC08320]?
firefly Hh reporter signal, replicate 1: 43768; firefly Hh reporter signal, replicate 2: 40241; Renilla reference signal, replicate 1: 6002; Renilla reference signal, replicate 2: 3188; outcome: inactive

Which result is listed for twi (GeneID 37655) [DRSC04720]?
firefly Hh reporter signal, replicate 1: 65882; firefly Hh reporter signal, replicate 2: 47416; Renilla reference signal, replicate 1: 1424; Renilla reference signal, replicate 2: 4742; outcome: inactive

Which result is listed for Rab3GAP1 (GeneID 33338) [DRSC00291]?
firefly Hh reporter signal, replicate 1: 1.54e5; firefly Hh reporter signal, replicate 2: 96073; Renilla reference signal, replicate 1: 2924; Renilla reference signal, replicate 2: 2176; outcome: inactive

For Rab3GAP1 (GeneID 33338) [DRSC00703], what does the deposit list?
firefly Hh reporter signal, replicate 1: 1.65e5; firefly Hh reporter signal, replicate 2: 1.12e5; Renilla reference signal, replicate 1: 3499; Renilla reference signal, replicate 2: 2986; outcome: inactive

How did the screen score trbd (GeneID 41179) [DRSC16494]?
firefly Hh reporter signal, replicate 1: 78571; firefly Hh reporter signal, replicate 2: 50076; Renilla reference signal, replicate 1: 3991; Renilla reference signal, replicate 2: 2491; outcome: inactive

Records listed so far whose gene name starts with T or t (2):
twi (GeneID 37655) [DRSC04720] | firefly Hh reporter signal, replicate 1: 65882; firefly Hh reporter signal, replicate 2: 47416; Renilla reference signal, replicate 1: 1424; Renilla reference signal, replicate 2: 4742; outcome: inactive
trbd (GeneID 41179) [DRSC16494] | firefly Hh reporter signal, replicate 1: 78571; firefly Hh reporter signal, replicate 2: 50076; Renilla reference signal, replicate 1: 3991; Renilla reference signal, replicate 2: 2491; outcome: inactive

The listing continues.
What did the screen give for betaTub85D (GeneID 41124) [DRSC16910]?
firefly Hh reporter signal, replicate 1: 53542; firefly Hh reporter signal, replicate 2: 82728; Renilla reference signal, replicate 1: 1154; Renilla reference signal, replicate 2: 2234; outcome: inactive

Which result is listed for CG33655 (GeneID 8674081) [DRSC03858]?
firefly Hh reporter signal, replicate 1: 1.21e5; firefly Hh reporter signal, replicate 2: 1.77e5; Renilla reference signal, replicate 1: 3328; Renilla reference signal, replicate 2: 8208; outcome: inactive

How did the screen score CG33769 (GeneID 3772499) [DRSC11716]?
firefly Hh reporter signal, replicate 1: 90602; firefly Hh reporter signal, replicate 2: 94491; Renilla reference signal, replicate 1: 3100; Renilla reference signal, replicate 2: 1748; outcome: inactive

How did the screen score GstS1 (GeneID 36927) [DRSC07436]?
firefly Hh reporter signal, replicate 1: 92368; firefly Hh reporter signal, replicate 2: 1.42e5; Renilla reference signal, replicate 1: 4480; Renilla reference signal, replicate 2: 4762; outcome: inactive

With wash (GeneID 36311) [DRSC06302], what does the deposit list?
firefly Hh reporter signal, replicate 1: 82680; firefly Hh reporter signal, replicate 2: 44435; Renilla reference signal, replicate 1: 2104; Renilla reference signal, replicate 2: 3856; outcome: inactive

Which result is listed for Pglym78 (GeneID 43447) [DRSC16787]?
firefly Hh reporter signal, replicate 1: 92992; firefly Hh reporter signal, replicate 2: 82576; Renilla reference signal, replicate 1: 1794; Renilla reference signal, replicate 2: 2336; outcome: inactive

What is on record for lectin-46Cb (GeneID 53522) [DRSC06611]?
firefly Hh reporter signal, replicate 1: 1.46e5; firefly Hh reporter signal, replicate 2: 52666; Renilla reference signal, replicate 1: 3207; Renilla reference signal, replicate 2: 3861; outcome: inactive

What did the screen give for CG14929 + CG14930 [DRSC02412]?
firefly Hh reporter signal, replicate 1: 92749; firefly Hh reporter signal, replicate 2: 85514; Renilla reference signal, replicate 1: 2835; Renilla reference signal, replicate 2: 7242; outcome: inactive

With htk (GeneID 32877) [DRSC20029], what does the deposit list?
firefly Hh reporter signal, replicate 1: 55259; firefly Hh reporter signal, replicate 2: 1.62e5; Renilla reference signal, replicate 1: 1018; Renilla reference signal, replicate 2: 6826; outcome: inactive

What did the screen give for htk (GeneID 32877) [DRSC20031]?
firefly Hh reporter signal, replicate 1: 1.50e5; firefly Hh reporter signal, replicate 2: 1.23e5; Renilla reference signal, replicate 1: 3213; Renilla reference signal, replicate 2: 3296; outcome: inactive

With CG11122 (GeneID 32046) [DRSC19382], what was measured?
firefly Hh reporter signal, replicate 1: 1.40e5; firefly Hh reporter signal, replicate 2: 1.26e5; Renilla reference signal, replicate 1: 3248; Renilla reference signal, replicate 2: 2938; outcome: inactive
